{"source": "patent US20180344745A1", "about": "“TREATMENT OF DEVELOPMENTAL DISORDERS WITH IMIDAZOLONE DERIVATIVES” (Ovid Therapeutics Inc., priority 2017, published 2018)", "origin": "cited, not measured here", "test_system": "benzodiazepine (BZD) recognition site of the GABAA receptor", "note": "For at least one compound, name, drawing or mass did not settle the structure."}
{"smiles": "O=C1N=C(N2CCOCC2)CN1c1ccc(Cl)cc1", "note": "[imepitoin, 1-(4-chlorophenyl)-4-morpholino-imidazolin-2-one]", "values": [{"measurement": "effect on amplitude of GABA-evoked currents", "setting": "acting at the BZD recognition site of the GABAA receptor", "result": "potentiates the amplitude"}, {"measurement": "affinity and intrinsic activity at the BZD site", "setting": "in contrast to clinically used BZD ligands", "result": "low-affinity partial agonist with low intrinsic activity"}]}
